Results reported in the supplement of paper PMC6078165.
± gives the standard deviation of the averaged measurements. The reference is the same well before dosing, and untreated signal decays as well.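 Fibroblast labels denote human fibroblasts, mainly primary ones from uterus (C12385, HUF), lung (H6013), bone (Hs27A), adrenal (HADF) and skin (WS1), plus mammary HMF and breast cancer-associated Hs343T. Cancer cells are basal-like or mesenchymal-like triple-negative breast cancer lines. A hit is a response shift exceeding 3x replicate standard deviation. The tissue of the other fibroblasts is not given here.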

System: MDAMB231
Experiment: relative JC-1 red fluorescence (viability) vs pre-drug, coculture with fibroblast (fraction); higher = more viable cancer cells
Conditions: 10 µM
Experimental: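 JC-1 labelled TNBC cells cocultured 1:1 (1,500 cells each) with CellTrace Violet stained primary or stromal fibroblasts in 384-well plates in FluoroBrite medium, treated with one of 42 anticancer drugs at 0.1, 1, 10 or 100 uM. JC-1 red fluorescence (mitochondrial integrity in cancer cells only) was read by plate reader every 8 h for 72 h. Values are normalised to each well's pre-drug value. The stock of one drug was tenfold lower, so its dose labels may be too high.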

O=C(CCCCCCC(=O)Nc1ccccc1)NO [Vorinostat]
relative JC-1 red fluorescence
Conditions | 40 h | 48 h | 56 h | 64 h | 72 h
coculture fibroblast: C12385 | – | 0.525 ± 0.025 | 0.481 ± 0.028 | 0.469 ± 0.02 | 0.459 ± 0.018
coculture fibroblast: H6013 | – | 0.61 ± 0.052 | 0.591 ± 0.051 | 0.578 ± 0.054 | 0.55 ± 0.05
coculture fibroblast: H6019 | – | 0.5991 ± 0.0031 | 0.598 ± 0.011 | 0.6462 ± 0.0039 | 0.6542 ± 0.0046
coculture fibroblast: H6076 | – | 0.682 ± 0.084 | 0.664 ± 0.074 | 0.653 ± 0.061 | 0.649 ± 0.048
coculture fibroblast: H6231 | – | 0.617 ± 0.072 | 0.589 ± 0.092 | 0.582 ± 0.11 | 0.562 ± 0.12
coculture fibroblast: HADF | – | 0.611 ± 0.054 | 0.585 ± 0.048 | 0.56 ± 0.065 | 0.505 ± 0.078
coculture fibroblast: HCFa | – | 0.511 ± 0.057 | 0.464 ± 0.06 | 0.432 ± 0.095 | 0.396 ± 0.1
coculture fibroblast: HCPF | – | 0.5753 ± 0.0048 | 0.525 ± 0.024 | 0.502 ± 0.026 | 0.489 ± 0.032
coculture fibroblast: HHSteC | 0.634 ± 0.048 | 0.602 ± 0.059 | 0.554 ± 0.066 | 0.543 ± 0.067 | 0.503 ± 0.064
coculture fibroblast: HMF | 0.599 ± 0.0094 | 0.556 ± 0.0049 | 0.512 ± 0.009 | 0.498 ± 0.02 | 0.48 ± 0.026
coculture fibroblast: HPFa | 0.707 ± 0.007 | 0.6702 ± 0.0054 | 0.6273 ± 0.0013 | 0.61238 ± 0.00043 | 0.584 ± 0.0061
coculture fibroblast: HUF | 0.535 ± 0.012 | 0.5302 ± 0.0014 | 0.5073 ± 0.0026 | 0.5196 ± 0.0042 | 0.5152 ± 0.0023
coculture fibroblast: Hs5 | 0.676 ± 0.054 | 0.621 ± 0.06 | 0.581 ± 0.05 | 0.552 ± 0.037 | 0.545 ± 0.03
coculture fibroblast: Hs27A | 0.71 ± 0.0092 | 0.651 ± 0.0093 | 0.6725 ± 0.0051 | 0.661 ± 0.0087 | 0.6234 ± 0.0013
coculture fibroblast: Hs343T | 0.644 ± 0.13 | 0.604 ± 0.14 | 0.547 ± 0.14 | 0.517 ± 0.12 | 0.472 ± 0.1
coculture fibroblast: WS1 | 0.471 ± 0.011 | 0.435 ± 0.0097 | 0.392 ± 0.016 | 0.383 ± 0.028 | 0.362 ± 0.033
